“And” between values parts separate entries of the source, which are not always exact repeats. Equal entries are not always repeated.
Columns and labels:
Assay type in all cases: cell-based
Conditions in all cases: selectivity index
A549 lung cancer cells = assay: MTT cell viability assay, A549
Method: (§1) The cell lines were purchased from the American Type Culture Collection (ATCC). The cancer cell lines DU-145, PC-3, T-47D, MDA-MB-231, H1299, and A549, and the non-tumorigenic cells (184B5 and BEAS-2B), were maintained in RPMI 1640 medium (Gibco, Alcobendas, Madrid, Spain) supplemented with 10% fetal bovine serum (FBS; Gibco) and 1% antibiotics (10.00 units/mL penicillin and 10.00 mg/mL streptomycin; Gibco). Colon cancer cells HT-29 and HCT-116 were cultured in McCoy’s 5A medium (Gibco) supplemented with 10% fetal bovine serum (FBS; Gibco) and 1% antibiotics (10.00 units/mL penicillin and 10.00 mg/mL streptomycin; Gibco). Cells were maintained in tissue culture flasks at 37 °C and 5% CO2. The culture medium was replaced every three days.
(§2) The antiproliferative activity and selectivity in vitro of the Se-NSAID derivatives were determined by the (3-(4,5-dimethylthiazol-2-yl)-2,5-diphenyltetrazolium bromide) (MTT) assay. Compounds were dissolved in DMSO at a concentration of 0.01 M and serial dilutions were prepared. The Se-NSAID derivatives were tested at seven concentrations ranging between 1 and 100 µM in the colon (HT-29 and HCT-116), prostate (DU-145 and PC-3), breast (MDA-MB-231 and T-47D), and lung (H1299 and A549) cancer cell lines. The non-tumorigenic breast (184B5) and lung (BEAS-2B) cell lines were also tested to assess the selectivity of the compounds following the same procedure. A total of 1 × 10^4 cells were seeded per well in 96-well plates and incubated at 5% CO2 and 37 °C for 24 h. Then, cells were treated with either DMSO or increasing concentrations of the corresponding Se-NSAID derivatives for 48 h. […] Absorbance was measured at 550 nm. IC50, GI50, TGI, and LC50 values were calculated using OriginPro version 8.5.1. software by nonlinear curve fitting. Selectivity indexes (SI) were calculated as the ratio of the IC50 values determined for the nonmalignant and the tumoral cells in the breast (IC50 (184B5)/IC50 (MDA-MB-231) and IC50 (184B5)/IC50 (T-47D)) and lung (IC50 (BEAS-2B)/IC50 (H1299) and IC50 (BEAS-2B)/IC50 (A549)) cell lines. […]

[1] = tested on: T-47D breast cancer cells; assay: MTT cell viability assay, T-47D
Method: as §1
(§3) The antiproliferative activity and selectivity in vitro of the Se-NSAID derivatives were determined by the (3-(4,5-dimethylthiazol-2-yl)-2,5-diphenyltetrazolium bromide) (MTT) assay. Compounds were dissolved in DMSO at a concentration of 0.01 M and serial dilutions were prepared. The Se-NSAID derivatives were tested at seven concentrations ranging between 1 and 100 µM in the colon (HT-29 and HCT-116), prostate (DU-145 and PC-3), breast (MDA-MB-231 and T-47D), and lung (H1299 and A549) cancer cell lines. The non-tumorigenic breast (184B5) and lung (BEAS-2B) cell lines were also tested to assess the selectivity of the compounds following the same procedure. A total of 1 × 10^4 cells were seeded per well in 96-well plates and incubated at 5% CO2 and 37 °C for 24 h. Then, cells were treated with either DMSO or increasing concentrations of the corresponding Se-NSAID derivatives for 48 h. A volume of 20 µL of MTT (5 mg/mL) was added to each well 2.5 h before the termination point. At the end of the experiment, the medium was removed, and the resultant formazan crystals formed by mitochondrial reduction of MTT were dissolved in 50 µL of DMSO. Absorbance was measured at 550 nm. IC50, GI50, TGI, and LC50 values were calculated using OriginPro version 8.5.1. software by nonlinear curve fitting. Selectivity indexes (SI) were calculated as the ratio of the IC50 values determined for the nonmalignant and the tumoral cells in the breast (IC50 (184B5)/IC50 (MDA-MB-231) and IC50 (184B5)/IC50 (T-47D)) and lung (IC50 (BEAS-2B)/IC50 (H1299) and IC50 (BEAS-2B)/IC50 (A549)) cell lines. Data were obtained from at least three independent experiments performed in triplicates.

[2] = tested on: MDA-MB-231 breast cancer cells; assay: MTT cell viability assay, MDA-MB-231
Method: as §1, §3

H1299 lung cancer cells = assay: MTT cell viability assay, H1299
Method: as §1, §2

Compound | SI IC50 (BEAS-2B)/IC50 (A549) (A549 lung cancer cells) | SI IC50 (184B5)/IC50 (T-47D) [1] | SI IC50 (184B5)/IC50 (MDA-MB-231) [2] | SI IC50 (BEAS-2B)/IC50 (H1299) (H1299 lung cancer cells)
CC(C(=O)[Se][Se]C(=O)C(C)c1cccc(C(=O)c2ccccc2)c1)c1cccc(C(=O)c2ccccc2)c1 (centres unmarked) [Compound 4, 2-(3-Benzoylphenyl)propanoic diselenoperoxyanhydride] | < 0.5 and 0.4 | 0.2 | 1.4 | –
COc1ccc2cc(C(C)C(=O)[Se][Se]C(=O)C(C)c3ccc4cc(OC)ccc4c3)ccc2c1 (centres unmarked) [Compound 3, 2-(6-Methoxynaphthalen-2-yl)propanoic diselenoperoxyanhydride] | – | 2.1 | 2.1 | 1.4
CC(=O)Oc1ccccc1C(=O)[Se][Se]C(=O)c1ccccc1OC(C)=O [Compound 1, 2-Acetoxybenzoic diselenoperoxyanhydride] | > 2 and 2.6 | 2.4 | 0.8 | > 2 and 2.2
CC(C)Cc1ccc(C(C)C(=O)[Se][Se]C(=O)C(C)c2ccc(CC(C)C)cc2)cc1 (centres unmarked) [Compound 5, 2-(4-Isobutylphenyl)propanoic diselenoperoxyanhydride] | 3.5 | 4.8 | 2.2 | 1.7

From article PMC10525927, “First Generation of Antioxidant Precursors for Bioisosteric Se-NSAIDs: Design, Synthesis, and In Vitro and In Vivo Anticancer Evaluation” (Antioxidants, 2023)
